# Experimental data from paper doi:10.1101/2024.06.13.598886.
# Amino acid sequences for entries named in this document (tags omitted). Residues count along the entry.
# UniProt P19525: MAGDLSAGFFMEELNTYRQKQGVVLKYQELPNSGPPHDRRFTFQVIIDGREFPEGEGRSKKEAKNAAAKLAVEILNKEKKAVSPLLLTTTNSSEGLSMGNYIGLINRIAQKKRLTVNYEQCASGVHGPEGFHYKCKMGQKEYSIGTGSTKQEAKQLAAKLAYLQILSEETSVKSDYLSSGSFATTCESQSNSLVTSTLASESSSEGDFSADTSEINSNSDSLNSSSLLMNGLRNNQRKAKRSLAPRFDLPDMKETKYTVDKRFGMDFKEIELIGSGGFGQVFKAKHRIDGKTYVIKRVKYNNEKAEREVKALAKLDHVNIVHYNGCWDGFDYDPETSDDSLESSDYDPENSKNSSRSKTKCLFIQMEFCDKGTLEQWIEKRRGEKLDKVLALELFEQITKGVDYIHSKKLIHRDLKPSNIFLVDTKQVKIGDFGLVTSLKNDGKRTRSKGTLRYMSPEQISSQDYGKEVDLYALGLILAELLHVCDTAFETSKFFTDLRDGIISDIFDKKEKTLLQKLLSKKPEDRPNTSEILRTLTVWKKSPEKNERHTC
# UniProt O43795: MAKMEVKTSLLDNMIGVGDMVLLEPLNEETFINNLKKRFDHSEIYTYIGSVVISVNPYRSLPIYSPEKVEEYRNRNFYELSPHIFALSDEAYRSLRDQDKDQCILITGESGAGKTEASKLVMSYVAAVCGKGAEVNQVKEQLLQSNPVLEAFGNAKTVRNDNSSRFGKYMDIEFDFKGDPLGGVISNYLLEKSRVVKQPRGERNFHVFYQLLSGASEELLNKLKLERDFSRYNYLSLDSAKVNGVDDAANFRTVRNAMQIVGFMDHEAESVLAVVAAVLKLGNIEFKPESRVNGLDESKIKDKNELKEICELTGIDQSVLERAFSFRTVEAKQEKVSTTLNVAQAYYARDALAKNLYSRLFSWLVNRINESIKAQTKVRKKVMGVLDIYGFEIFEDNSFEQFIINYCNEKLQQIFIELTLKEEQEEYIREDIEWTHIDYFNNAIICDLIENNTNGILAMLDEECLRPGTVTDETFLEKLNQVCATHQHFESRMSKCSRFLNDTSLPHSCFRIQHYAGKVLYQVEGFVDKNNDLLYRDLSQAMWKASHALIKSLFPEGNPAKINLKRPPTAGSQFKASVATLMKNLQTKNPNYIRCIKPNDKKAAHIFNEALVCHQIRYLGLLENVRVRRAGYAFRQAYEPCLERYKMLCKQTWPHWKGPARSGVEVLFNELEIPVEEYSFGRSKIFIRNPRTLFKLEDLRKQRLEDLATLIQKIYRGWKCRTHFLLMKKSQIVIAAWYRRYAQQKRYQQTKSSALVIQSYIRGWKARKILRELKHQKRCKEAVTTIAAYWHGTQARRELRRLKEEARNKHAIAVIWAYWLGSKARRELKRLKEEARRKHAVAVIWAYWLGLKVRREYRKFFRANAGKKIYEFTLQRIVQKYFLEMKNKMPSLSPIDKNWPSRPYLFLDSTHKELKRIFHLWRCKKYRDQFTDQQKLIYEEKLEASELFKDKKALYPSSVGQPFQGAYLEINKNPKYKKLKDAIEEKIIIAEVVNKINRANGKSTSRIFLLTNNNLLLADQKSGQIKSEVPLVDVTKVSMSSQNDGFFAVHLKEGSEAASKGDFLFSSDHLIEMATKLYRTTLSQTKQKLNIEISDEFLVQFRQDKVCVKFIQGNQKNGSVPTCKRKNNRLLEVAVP
# UniProt P07996, residues 19-1170: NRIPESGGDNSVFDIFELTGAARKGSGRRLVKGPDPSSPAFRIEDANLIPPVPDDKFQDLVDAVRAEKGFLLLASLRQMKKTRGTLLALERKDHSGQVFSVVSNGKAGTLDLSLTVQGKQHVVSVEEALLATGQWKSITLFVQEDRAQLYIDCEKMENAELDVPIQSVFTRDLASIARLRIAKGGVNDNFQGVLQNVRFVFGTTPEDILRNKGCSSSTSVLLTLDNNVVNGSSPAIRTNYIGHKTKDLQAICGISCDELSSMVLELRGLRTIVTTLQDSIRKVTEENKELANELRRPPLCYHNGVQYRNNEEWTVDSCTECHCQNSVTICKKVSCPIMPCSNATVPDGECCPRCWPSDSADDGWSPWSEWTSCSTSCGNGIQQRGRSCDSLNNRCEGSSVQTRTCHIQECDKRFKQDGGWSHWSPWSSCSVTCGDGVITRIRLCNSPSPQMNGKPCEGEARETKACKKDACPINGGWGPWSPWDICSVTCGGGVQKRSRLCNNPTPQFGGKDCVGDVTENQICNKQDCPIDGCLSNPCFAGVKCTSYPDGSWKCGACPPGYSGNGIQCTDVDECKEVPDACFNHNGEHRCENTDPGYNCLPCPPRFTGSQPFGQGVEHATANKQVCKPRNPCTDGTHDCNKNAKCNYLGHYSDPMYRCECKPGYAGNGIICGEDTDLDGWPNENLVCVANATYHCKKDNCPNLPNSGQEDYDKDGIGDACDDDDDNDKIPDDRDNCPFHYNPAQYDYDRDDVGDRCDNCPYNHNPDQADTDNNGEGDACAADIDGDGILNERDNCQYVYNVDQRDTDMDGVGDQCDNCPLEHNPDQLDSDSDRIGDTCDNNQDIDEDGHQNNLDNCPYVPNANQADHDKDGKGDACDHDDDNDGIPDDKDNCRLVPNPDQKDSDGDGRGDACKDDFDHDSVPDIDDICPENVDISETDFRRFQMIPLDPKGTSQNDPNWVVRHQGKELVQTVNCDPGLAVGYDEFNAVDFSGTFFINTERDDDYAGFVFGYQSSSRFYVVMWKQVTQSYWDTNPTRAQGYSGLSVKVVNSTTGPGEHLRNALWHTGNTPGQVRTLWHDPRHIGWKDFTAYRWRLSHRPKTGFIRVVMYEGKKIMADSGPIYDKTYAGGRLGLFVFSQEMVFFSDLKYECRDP
# B1: CDK5 Regulatory Subunit Associated Protein 3 (protein, UniProt Q96JB5 1-506)
# chain: MEDHQHVPIDIQTSKLLDWLVDRRHCSLKWQSLVLTIREKINAAIQDMPESEEIAQLLSGSYIHYFHCLRILDLLKGTEASTKNIFGRYSSQRMKDWQEIIALYEKDNTYLVELSSLLVRNVNYEIPSLKKQIAKCQQLQQEYSRKEEECQAGAAEMREQFYHSCKQYGITGENVRGELLALVKDLPSQLAEIGAAAQQSLGEAIDVYQASVGFVCESPTEQVLPMLRFVQKRGNSTVYEWRTGTEPSVVERPHLEELPEQVAEDAIDWGDFGVEAVSEGTDSGISAEAAGIDWGIFPESDSKDPGGDGIDWGDDAVALQITVLEAGTQAPEGVARGPDALTLLEYTETRNQFLDELMELEIFLAQRAVELSEEADVLSVSQFQLAPAILQGQTKEKMVTMVSVLEDLIGKLTSLQLQHLFMILASPRYVDRVTEFLQQKLKQSQLLALKKELMVQKQQEALEEQAALEPKLDLLLEKTKELQKLIEADISKRYSGRPVNLMGTSL
# B2: BRCA1 Associated Protein (protein, UniProt Q7Z569 1-592)
# chain: MSVSLVVIRLELAEHSPVPAGFGFSAAAGEMSDEEIKKTTLASAVACLEGKSPGEKVAIIHQHLGRREMTDVIIETMKSNPDELKTTVEERKSSEASPTAQRSKDHSKECINAAPDSPSKQLPDQISFFSGNPSVEIVHGIMHLYKTNKMTSLKEDVRRSAMLCILTVPAAMTSHDLMKFVAPFNEVIEQMKIIRDSTPNQYMVLIKFRAQADADSFYMTCNGRQFNSIEDDVCQLVYVERAEVLKSEDGASLPVMDLTELPKCTVCLERMDESVNGILTTLCNHSFHSQCLQRWDDTTCPVCRYCQTPEPVEENKCFECGVQENLWICLICGHIGCGRYVSRHAYKHFEETQHTYAMQLTNHRVWDYAGDNYVHRLVASKTDGKIVQYECEGDTCQEEKIDALQLEYSYLLTSQLESQRIYWENKIVRIEKDTAEEINNMKTKFKETIEKCDNLEHKLNDLLKEKQSVERKCTQLNTKVAKLTNELKEEQEMNKCLRANQVLLQNKLKEEERVLKETCDQKDLQITEIQEQLRDVMFYLETQQKINHLPAETRQEIQEGQINIAMASASSPASSGGSGKLPSRKGRSKRGK
# Molecular target: T1, PTPRH WT-BioID2-HA (human) (UniProt Q9HD43)
# T1 sequence: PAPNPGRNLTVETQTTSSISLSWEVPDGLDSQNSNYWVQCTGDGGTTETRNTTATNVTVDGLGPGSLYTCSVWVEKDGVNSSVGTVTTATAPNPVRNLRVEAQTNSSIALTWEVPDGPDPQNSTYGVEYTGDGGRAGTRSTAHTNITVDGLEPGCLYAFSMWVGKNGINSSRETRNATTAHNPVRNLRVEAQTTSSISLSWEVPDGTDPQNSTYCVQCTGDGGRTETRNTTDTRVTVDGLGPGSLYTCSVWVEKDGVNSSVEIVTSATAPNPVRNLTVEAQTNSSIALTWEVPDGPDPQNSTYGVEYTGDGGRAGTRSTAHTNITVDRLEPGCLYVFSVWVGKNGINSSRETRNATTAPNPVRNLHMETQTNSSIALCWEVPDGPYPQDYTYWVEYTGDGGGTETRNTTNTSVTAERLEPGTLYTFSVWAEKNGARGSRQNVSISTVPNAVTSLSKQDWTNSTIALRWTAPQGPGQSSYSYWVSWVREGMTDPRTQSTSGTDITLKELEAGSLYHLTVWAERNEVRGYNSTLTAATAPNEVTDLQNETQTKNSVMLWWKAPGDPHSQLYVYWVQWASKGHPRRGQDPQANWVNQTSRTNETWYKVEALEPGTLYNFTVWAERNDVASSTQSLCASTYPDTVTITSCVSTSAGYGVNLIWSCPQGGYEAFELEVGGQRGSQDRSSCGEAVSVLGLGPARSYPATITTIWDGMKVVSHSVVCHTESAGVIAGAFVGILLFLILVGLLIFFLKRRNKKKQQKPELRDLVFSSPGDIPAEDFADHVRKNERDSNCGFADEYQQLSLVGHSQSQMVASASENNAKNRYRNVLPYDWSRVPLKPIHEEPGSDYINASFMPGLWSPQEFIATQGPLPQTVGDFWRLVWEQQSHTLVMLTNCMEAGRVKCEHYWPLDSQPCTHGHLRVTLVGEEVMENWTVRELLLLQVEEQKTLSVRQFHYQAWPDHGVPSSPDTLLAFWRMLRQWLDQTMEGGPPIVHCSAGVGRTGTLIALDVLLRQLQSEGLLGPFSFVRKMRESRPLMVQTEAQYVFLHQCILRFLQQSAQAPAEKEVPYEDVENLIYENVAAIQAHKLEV
# Test: proximity labelling
row,Molecule,binding
1,Eukaryotic Translation Initiation Factor 2 Alpha Kinase 2 (from UniProt P19525 1-551) (enzyme),binds
2,Myosin IB (from UniProt O43795 1-1136),binds
3,thrombospondin 1 (from UniProt P07996 19-1170),binds
4,B1,binds
5,B2,binds

# Results are given in words; binding and its absence hold for the method and conditions named. In cells and extracts the contact can be indirect. A yes stands for co-enrichment or nearness to the bait. Other partners may have been found. Tags and fused reporters may be left off the sequences shown.
